Measurements as given in article doi:10.64898/2025.12.08.692925.
These are yes or no findings as the source states them, for the method shown. In cells and extracts the contact can be indirect. Binding calls can cover weak binding; strength is not graded here. Sequences can lack the tags named with a protein. Values belong to the molecule of their own block, whether it stands above or below them.

Legend:
[1] = molecular target: T1, Tim23 fused to short YFP (S. cerevisiae) (UniProt P32897); assay: split reporter
T1 sequence: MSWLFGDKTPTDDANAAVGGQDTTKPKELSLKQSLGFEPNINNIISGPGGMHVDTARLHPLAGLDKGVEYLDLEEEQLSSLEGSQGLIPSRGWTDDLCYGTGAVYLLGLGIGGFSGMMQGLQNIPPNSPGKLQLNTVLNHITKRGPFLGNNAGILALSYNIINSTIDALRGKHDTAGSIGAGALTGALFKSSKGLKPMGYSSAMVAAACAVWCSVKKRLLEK

[2] = molecular target: Tim23 mutant M3 fused to short YFP (S. cerevisiae) (UniProt P32897); assay: split reporter

- binding [1]: binds
Molecule: Sfc1 mutant M2 fused to long YFP (from UniProt P33303)

- binding [1]: binds
Molecule: Sfc1 mutant M4 fused to long YFP (from UniProt P33303)

- binding [1]: binds
Molecule: Sfc1 mutant M5 fused to long YFP (from UniProt P33303)

- binding [2]: binds
B1: Sfc1 fused to long YFP (protein, UniProt P33303 1-322)
chain: MSQKKKASHPAINLMAGGTAGLFEALCCHPLDTIKVRMQIYRRVAGIEHVKPPGFIKTGRTIYQKEGFLALYKGLGAVVIGIIPKMAIRFSSYEFYRTLLVNKESGIVSTGNTFVAGVGAGITEAVLVVNPMEVVKIRLQAQHLTPSEPNAGPKYNNAIHAAYTIVKEEGVSALYRGVSLTAARQATNQGANFTVYSKLKEFLQNYHQMDVLPSWETSCIGLISGAIGPFSNAPLDTIKTRLQKDKSISLEKQSGMKKIITIGAQLLKEEGFRALYKGITPRVMRVAPGQAVTFTVYEYVREHLENLGIFKKNDTPKPKPLK
